# Reference: publication PMC7862700
# The list shows a part of the results, in another mix than the full data. For part of these data: At the low end of the ranking the order means little. The list shows a part of the results. For part of these data: The source does not settle which construct or isoform was used.
# Key:
# Test in all cases: DAPPL (digital affinity profiling via proximity ligation, sequencing)
# Details in all cases: 10 mM Tris-HCl pH 7.5, 50 mM NaCl, 1 mM DTT, 4% glycerol, room temperature, 30 min; GST-TFs on glutathione beads, 16-mer random dsDNA library, 0.1% …; high values mean tight binding; double strand, one strand shown; scale: fold enrichment (6-mer frequency, TF over GST control)
# GABPA = molecular target: T1, GABPA (UniProt Q06546)
# T1 sequence: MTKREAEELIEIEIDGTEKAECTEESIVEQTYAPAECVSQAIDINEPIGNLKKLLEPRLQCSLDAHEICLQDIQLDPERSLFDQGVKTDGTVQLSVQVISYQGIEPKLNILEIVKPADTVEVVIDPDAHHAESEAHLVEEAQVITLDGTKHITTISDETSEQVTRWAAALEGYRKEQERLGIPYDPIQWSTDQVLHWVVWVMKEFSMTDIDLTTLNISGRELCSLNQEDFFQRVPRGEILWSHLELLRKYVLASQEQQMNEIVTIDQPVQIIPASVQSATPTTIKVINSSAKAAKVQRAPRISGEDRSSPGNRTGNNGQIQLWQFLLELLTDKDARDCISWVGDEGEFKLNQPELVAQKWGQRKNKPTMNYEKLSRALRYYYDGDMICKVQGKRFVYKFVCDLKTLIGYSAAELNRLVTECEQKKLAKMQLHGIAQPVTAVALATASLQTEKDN
# ETS1 = molecular target: T2, ETS1 (UniProt P14921)
# T2 sequence: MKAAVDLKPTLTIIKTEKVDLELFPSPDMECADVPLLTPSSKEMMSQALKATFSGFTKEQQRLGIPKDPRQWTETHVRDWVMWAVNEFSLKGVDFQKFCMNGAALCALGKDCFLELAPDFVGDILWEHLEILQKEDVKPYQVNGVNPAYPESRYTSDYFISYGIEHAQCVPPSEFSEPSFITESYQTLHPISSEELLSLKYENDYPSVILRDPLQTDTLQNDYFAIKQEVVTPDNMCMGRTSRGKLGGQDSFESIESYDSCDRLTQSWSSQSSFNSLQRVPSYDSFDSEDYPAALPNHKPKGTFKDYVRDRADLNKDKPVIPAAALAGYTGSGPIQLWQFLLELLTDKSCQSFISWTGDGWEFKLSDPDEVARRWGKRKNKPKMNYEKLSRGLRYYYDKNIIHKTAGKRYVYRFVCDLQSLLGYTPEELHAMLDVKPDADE
# SPDEF = molecular target: T3, SPDEF (UniProt O95238)
# T3 sequence: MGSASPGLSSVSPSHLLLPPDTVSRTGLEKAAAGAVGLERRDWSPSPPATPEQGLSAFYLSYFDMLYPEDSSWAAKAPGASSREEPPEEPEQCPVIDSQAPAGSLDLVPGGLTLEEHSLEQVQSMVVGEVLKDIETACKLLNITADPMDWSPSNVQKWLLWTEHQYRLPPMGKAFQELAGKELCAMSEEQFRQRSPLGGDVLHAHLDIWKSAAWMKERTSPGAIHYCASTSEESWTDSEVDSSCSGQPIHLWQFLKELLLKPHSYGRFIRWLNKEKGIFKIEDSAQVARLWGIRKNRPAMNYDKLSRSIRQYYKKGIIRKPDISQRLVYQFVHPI
Sequence,binding signal (GABPA),binding signal (ETS1),binding signal (SPDEF)
CGAGGT,0.96,0.923,0.994
TGGGAT,1.3,1.24,1.17
CGCACA,0.955,0.962,0.97
TCGCGG,1.07,1.02,1.01
TGGAAC,0.993,0.92,0.91
TAGTTG,0.905,1.03,0.948
GTTTCA,1.35,1.3,1.22
ACCAAG,0.895,0.889,0.879
AGTTTA,0.968,1.01,0.898
GTATCG,0.911,0.919,0.973
ATCCGG,2.37,2.39,4.67
TCAGAC,0.946,0.888,0.879
TCCAGT,0.67,0.665,0.62
CCGACT,1.48,1.36,1.45
GTACTA,1.12,1.07,1.1
TACGAG,0.943,0.906,0.896
AGTGTA,0.911,0.941,0.982
GATAAG,0.957,0.871,0.967
CGCACT,1.28,1.24,1.1
GCATCT,1.03,1.03,0.939
AGCATA,0.936,0.898,0.926
TAAGAC,0.927,0.925,0.883
TAAACC,1.22,1.27,1.28
AGGTTC,0.87,0.827,0.906

Sequence,binding signal (GABPA),binding signal (ETS1),binding signal (SPDEF)
ACCACA,0.983,1.03,0.99
GTTCGC,1.03,1.03,0.954
TGAAGG,0.848,0.848,0.959
GCGTCT,1.02,1.23,0.983
CATAAG,0.902,0.883,0.914
AGTTTT,0.949,0.991,0.87
TCCGAG,0.924,0.923,0.955
GATGGA,0.94,0.944,0.868
AGTGAC,0.936,1.12,0.95
TCGAAG,0.938,0.927,0.874
GCACAC,0.967,0.98,0.944
TTACCA,1.04,1.12,1.09
GCCGCA,1.02,0.963,0.905
CGTTGG,0.889,0.95,0.983
GTCTAG,0.878,0.862,0.723
AACGGA,0.955,0.991,1.23
CTAGGG,0.901,0.871,0.809
GATTTA,0.964,1.04,1.08
ACGCGT,0.976,0.961,0.855
GATCGA,0.838,0.801,0.783
TTGGAT,0.96,1.04,1.13
GTGCTG,0.811,0.787,0.818
TTAGTG,0.841,0.808,0.946
GGACTC,1.07,1.06,0.956

Sequence,binding signal (GABPA),binding signal (ETS1),binding signal (SPDEF)
GGCACC,0.77,0.76,0.828
GTGGAT,0.801,0.972,0.83
GGAATG,0.85,0.839,0.835
GCAGAT,0.929,0.991,0.896
AGAGAT,0.933,0.892,0.885
TATTAG,0.991,1.06,1.06
TAAGGG,0.98,0.982,0.976
ACGCAC,1.04,1.07,0.912
TCGCGT,0.976,0.942,0.891
GACACT,0.978,0.958,0.951
CGAGTA,0.891,0.907,0.837
AGATGG,0.904,0.936,0.899
TCAAGA,0.846,0.868,0.863
CATAGA,0.953,0.952,0.98
AGAACT,0.888,0.941,0.933
GTTGAA,0.831,0.927,0.93
CAATGA,1.05,1.05,0.952
CTCGGG,0.909,0.986,0.955
TCACGG,0.943,1.09,1.1
GGGCAT,0.861,0.975,0.902
ACAAGG,0.933,0.897,0.913
TCTCCT,1.53,1.54,1.32
TCGTTA,0.867,0.983,0.885
TGCTAG,1.08,1.09,1.09

Sequence,binding signal (GABPA),binding signal (ETS1),binding signal (SPDEF)
CCCCGC,1.2,1.26,1.06
CCATAG,0.964,0.867,0.89
GCGTCA,0.967,0.894,0.905
TCCAGC,0.97,0.937,0.99
GAAGGT,0.926,0.855,0.847
CCGACA,1.11,1.19,1.27
TGTGCG,0.928,1.13,0.957
GACTTG,0.792,0.887,0.857
CCCGCG,0.946,0.878,0.83
CAGCGC,1.01,0.926,0.837
GGCCTG,0.906,1.02,0.855
CCATGG,0.983,0.994,0.967
CTGTGG,0.901,0.882,0.898
AGTACC,0.869,0.926,1.01
CCAGAT,0.864,0.874,0.929
ACGCCA,0.872,0.931,0.85
GCCATC,0.945,0.894,0.961
TGACAT,1.31,1.07,1.25
GAGAAT,0.772,0.778,0.728
TAACAG,0.967,1.05,1.11
GAGAAA,0.789,0.73,0.684
CCAACG,1.09,1.1,1.13
CAGTAT,0.928,0.931,0.907
TGGCGT,0.963,1.07,0.967

# Reformatted as tab-separated lines: entries from further up
Sequence	binding signal (GABPA)	binding signal (ETS1)	binding signal (SPDEF)
TCTCCT	1.53	1.54	1.32
TCGTTA	0.867	0.983	0.885
TGCTAG	1.08	1.09	1.09
CCCCGC	1.2	1.26	1.06
CCATAG	0.964	0.867	0.89
GCGTCA	0.967	0.894	0.905
TCCAGC	0.97	0.937	0.99
GAAGGT	0.926	0.855	0.847
CCGACA	1.11	1.19	1.27
GACTTG	0.792	0.887	0.857
CCCGCG	0.946	0.878	0.83
GGCCTG	0.906	1.02	0.855
CCATGG	0.983	0.994	0.967
CTGTGG	0.901	0.882	0.898
AGTACC	0.869	0.926	1.01
CCAGAT	0.864	0.874	0.929
ACGCCA	0.872	0.931	0.85
TGACAT	1.31	1.07	1.25
GAGAAT	0.772	0.778	0.728
TAACAG	0.967	1.05	1.11
GAGAAA	0.789	0.73	0.684
CCAACG	1.09	1.1	1.13
CAGTAT	0.928	0.931	0.907
TGGCGT	0.963	1.07	0.967

# (next part)

Sequence,binding signal (GABPA),binding signal (ETS1),binding signal (SPDEF)
TCTGAG,0.937,0.954,0.911
GTCCTC,1.17,1.26,1.19
GATAAC,0.979,0.944,0.932
GGCATA,0.882,0.924,0.918
ACTCGG,0.975,0.95,0.968
CGGCAA,0.938,0.965,0.947
CGAAGG,1,0.885,0.819
GACCCC,0.975,0.978,0.941
TCGCTG,1.01,1.08,0.97
TCCGAT,1.17,1.23,1.34
TCGCGA,0.832,0.975,0.809
TGAATA,1.2,1.1,1.09
AATCGT,0.884,0.823,0.883
TAAGAG,0.859,0.911,0.889
TGTAGA,0.897,0.955,0.946
TTAGAG,0.893,0.869,0.886
GGCCTC,1.26,1.1,1.08
CTGGGG,0.796,0.851,0.828
CACGTT,1.3,1.31,1.18
GAAACC,0.959,0.97,0.994
CAGATT,0.898,1.01,0.992
TGGCTG,0.97,1.1,1.01
TAGGCC,1.02,0.848,0.861
CCTTTT,1.46,1.48,1.55
